Values of other authors as cited in patent US20070197473A1, “Methods of using SAHA and Bortezomib for treating cancer” (priority 2005, published 2007).

Tested on: carcinogen-induced (N-methylnitrosourea) mammary tumors
Details: rats; SAHA administered in diet over the 130 days of the study

SMILES: O=C(CCCCCCC(=O)Nc1ccccc1)NO [SAHA, N-Hydroxy-N′-phenyl octanediamide]
- inhibition of development and continued growth of mammary tumors: effective at inhibiting the development and continued growth
